# Results published in patent publication US20120270300A1, “PRODUCTION OF RECOMBINANT FACTOR IX IN A HUMAN HEPATOCYTE CELL LINE” (Universite Claude Bernard Lyon I, priority 2009, published 2012).
# Tests used:
# [1] = MALDI-TOF mass spectrometry (negative mode, after ZrO2) of sulfation and phosphorylation of the FIX activation peptide; set-up: key: −: absence; (+): presence, weak intensity; +: presence, medium intensity; +++: presence, strong intensity; details: semi-quantitative; for abundance of activation peptide form D: deletion of alanine 194, free form; for abundance of activation peptide form D + P + S: deletion of alanine 194, phosphate and sulfate; for abundance of activation peptide form C: deletion of threonine 194, free form; for abundance of activation peptide form C + G: deletion of threonine 194, monosaccharides; for abundance of activation peptide form C + P + S: deletion of threonine 194, phosphate and sulfate; for abundance of activation peptide form B: variant T/A at 194, free form; for abundance of activation peptide form B + G: variant T/A at 194, monosaccharides; for abundance of activation peptide form B + P + S: variant T/A at 194, phosphate and sulfate; for abundance of activation peptide form B + P + S + G / abundance of activation peptide form B + P: variant T/A at 194, phosphate; for abundance of activation peptide form B + P + S + G / abundance of activation peptide form A + P + S + G: sulfate, monosaccharides; for abundance of activation peptide form B + S: variant T/A at 194, sulfate; for abundance of activation peptide form A / abundance of activation peptide form A + P + S: wild-type peptide [192-226]; for abundance of activation peptide form A: free form; for abundance of activation peptide form A + P + S: phosphate and sulfate; for abundance of activation peptide form A + P + S + G: wild-type peptide, phosphate
# [2] = FIX from HepG2 cells with viral vectors, published by Chen et al.; ng of FIX/24 hours/10^6 cells; cited from earlier work
# [3] = FIX concentration by Asserachrom IX:Ag ELISA in culture medium and cell extracts
substance,measurement,setting,value
Benefix: marketed recombinant FIX (Wyeth) synthesized by CHO cells stably transfected with the FIX cDNA,abundance of activation peptide form D,[1],−
same,abundance of activation peptide form D + P + S,[1],−
same,abundance of activation peptide form C,[1],+++
same,abundance of activation peptide form C + G,[1],+
same,abundance of activation peptide form C + P + S,[1],−
same,abundance of activation peptide form B,[1],+++
same,abundance of activation peptide form B + G,[1],+
same,abundance of activation peptide form B + P + S,[1],−
same,abundance of activation peptide form B + P + S + G,[1],−
same,abundance of activation peptide form B + P,[1],−
same,abundance of activation peptide form B + S,[1],(+)
same,abundance of activation peptide form A,[1],−
same,abundance of activation peptide form A + P + S,[1],−
same,abundance of activation peptide form A + P + S + G,[1],−
"FIX/GCF9SN-MPSV: FIX produced with a viral vector in the HepG2 hepatocyte cell line by Chen et al., 1997",ELISA,[2],76 ng/mL
"FIX/GCNCF9: FIX produced with a viral vector in the HepG2 hepatocyte cell line by Chen et al., 1997",ELISA,[2],128 ng/mL
"FIXwt: recombinant human factor IX expressed in the human hepatocyte cell line Huh7 (transient, or stable clone Huh7-CD4) and secreted into the supernatant",ELISA,"[3]; Huh7-CD4 clone, ng of FIX/24 hours/10^6 cells, five assays",461 ± 12 ng/mL
same,intracellular FIX level (ELISA),"[3]; Huh7 cells transiently transfected with pcDNAFIXwt, 36 h",0.05 μg/ml of cell lysate
same,abundance of activation peptide form D,[1],−
same,abundance of activation peptide form D + P + S,[1],−
same,abundance of activation peptide form C,[1],+++
same,abundance of activation peptide form C + G,[1],+
same,abundance of activation peptide form C + P + S,[1],−
same,abundance of activation peptide form B,[1],+++
same,abundance of activation peptide form B + G,[1],+
same,abundance of activation peptide form B + P + S,[1],+++
same,abundance of activation peptide form B + P + S + G,[1],(+)
same,abundance of activation peptide form B + P,[1],+++
same,abundance of activation peptide form B + S,[1],−
same,abundance of activation peptide form A,[1],−
same,abundance of activation peptide form A + P + S,[1],−
same,abundance of activation peptide form A + P + S + G,[1],−
"Mononine: plasma FIX prepared from pools of human plasma, sold under the name Mononine, CSL Behring",abundance of activation peptide form D,[1],−
same,abundance of activation peptide form D + P + S,[1],+++
same,abundance of activation peptide form C,[1],−
same,abundance of activation peptide form C + G,[1],−
same,abundance of activation peptide form C + P + S,[1],+
same,abundance of activation peptide form B,[1],−
same,abundance of activation peptide form B + G,[1],−
same,abundance of activation peptide form B + P + S,[1],+
same,abundance of activation peptide form B + P + S + G,[1],−
same,abundance of activation peptide form B + P,[1],−
same,abundance of activation peptide form B + S,[1],−
same,abundance of activation peptide form A,[1],−
same,abundance of activation peptide form A + P + S,[1],+++
same,abundance of activation peptide form A + P + S + G,[1],+

# Where two headings read alike, the source gives them in different places.
